Patent publication US8367887B2, “Normal-tension glaucoma model and method for evaluation of test substances by using same” (Shinshu University, priority 2007, dated 2013)
At least one compound was matched to its structure with a doubt left.

Test system: retinal ganglion cells
Assay: Screening of test substances: protection of retinal ganglion cells from NMDA-induced apoptosis in wild-type and NF-κBp50-deficient mice
Type: in vivo, mouse
Settings: 5 mM NMDA into vitreous, 24 hours
Procedure: Intravitreal NMDA injection was performed. 2 μl of 5 mM solution of NMDA in buffered saline solution (BSS) was injected into the vitreous of the left eye of each mouse aged 2 months. The right eyes were injected with BSS alone. At 24 hours and 4 days after injection, the eyes were enucleated and fixed in 4% paraformaldehyde in PB, followed by dehydration and paraffin embedding. Tranverse sections were made through the optic disc and stained with hematoxylin and eosin (H&E). Cells of 0.35 mm length at 0.3 mm from the edge of the optic disc in the ganglion cell layer were counted except for cells infiltrating the ganglion cell layer. The average number of cells per field was analyzed, and statistical differences were analyzed by the Student's t test.
By intraperitoneal administration, phosphate buffered saline (PBS) as control substance was respectively administered to wild-type mice and NF-κBp50-deficient mice once daily for 7 days. 5 mM of NMDA was directly administered into vitreous of the mice, and then the number of retinal ganglion cells after 24 hours was counted. […]
A control group was kept alike with administration for 2 weeks instead of administration of PBS for 7 days under above-mentioned control group. […] 5 mM of NMDA was directly administered into vitreous thereof, and then the number of retinal ganglion cells after 24 hours was counted.

Compound: C=CC[C@@H]1/C=C(\C)C[C@H](C)C[C@H](OC)[C@H]2O[C@@](O)(C(=O)C(=O)N3CCCC[C@H]3C(=O)O[C@H](/C(C)=C/[C@@H]3CC[C@@H](O)[C@H](OC)C3)[C@H](C)[C@@H](O)CC1=O)[C@H](C)C[C@@H]2OC [KF506]
- effect of protecting retinal ganglion cells from NMDA-induced apoptosis (conclusion in words): had effect of protecting of the retinal ganglion cells from the NMDA-induced apoptosis
